Measurements reported in article PMC10649752, “Design and Synthesis of Novel Chalcone Derivatives: Anti-Breast Cancer Activity Evaluation and Docking Study” (International Journal of Molecular Sciences, 2023).

System: human normal hepatocyte L-O2
Assay: CCK-8 cytotoxicity against normal hepatocyte L-O2 cells
Type: cell-based
Conditions: ratio L-02 IC50/MCF-7 IC50
Procedure: We have selected compounds A7, A8, A9, and A14 with relatively low IC50 values, which are considered to have more potential and are more meaningful for further research. The toxic effects of compounds A7, A8, A9, and A14 on normal hepatocytes cells L-O2 were assessed in this work to examine the selective toxicity of the new compounds on cancer cells without harming normal cells. The selectivity index was calculated as a ratio of L-02 IC50/MCF-7 IC50 for these four compounds. […] Therefore, A8 and A14 were chosen as representative medications for future research after thorough evaluation.
DMEM high glucose medium and fetal calf serum were obtained from Gibco (New York, NY, USA), and cell counting Kit-8 solution was purchased from Meilunbio (Dalian, China). Paraformaldehyde and Crystal Violet were purchased from Biosharp (Hefei, China). The MCF-7 and L-02 cell lines were purchased from the Shanghai Institute of Biochemistry (Shanghai, China) All the target compounds and 5-fluorouracil (5-Fu) were dissolved with DMSO at a concentration of 20 mM. Cell culture medium was a mixture of DMEM medium, 10% fetal bovine serum, and 1% penicillin–streptomycin solution stored at […]. The cells were grown at 37 °C under 5% CO2.
Cells were seeded into 96 well plates with 4000 cells/well using DMEM solution and incubated in a humid atmosphere containing 5% CO2 at 37 °C for 24 h. Compounds with different concentrations (200 μM, 100 μM, 50 μM, 25 μM, 12.5 μM, 6.25 μM, 3.125 μM, 1.5625 μM) were added to the culture medium for 24 h. After that, CCK-8 reagent (10 μL) was added under dark conditions and incubated the plate in a CO2 incubator at 37 °C for 2 h. After incubation, the absorbance was measured using an enzyme-linked immunosorbent assay at a wavelength of 450 nm. Cell survival rate was calculated as a percentage of the control group.
By using Graph Pad Prism 8.0 software, the concentration that inhibits 50% of maximum cell proliferation was determined to be IC50 value.

First: COc1cc(C(=O)/C=C/c2ccc(C(=O)NCc3cccs3)cc2)cc(OC)c1OC [Compound A7, (E)-4-(3-oxo-3-(3,4,5-trimethoxyphenyl)prop-1-en-1-yl)-N-(thiophen-2-ylmethyl) benzamide]
Second: COc1cc(C(=O)/C=C/c2ccc(C(=O)NCC3CC3)cc2)cc(OC)c1OC [Compound A9, (E)-N-(cyclopropylmethyl)-4-(3-oxo-3-(3,4,5-trimethoxyphenyl)prop-1-en-1-yl) benzamide]
The “Selectivity Index (SI)” value of the first is higher: 2.35 for the first, 1.80 for the second.

In the case of COc1cc(C(=O)/C=C/c2ccc(C(=O)OCCCSc3ccncc3)cc2)cc(OC)c1OC [Compound A14, 3-(pyridin-4-ylthio) propyl (E)-4-(3-oxo-3-(3,4,5-trimethoxyphenyl)prop-1-en-1-yl) benzoate], the “Selectivity Index (SI)” value is reported as 4.21.
